No constants are given. Whether binding was seen depends on the method and setting. Binding seen in cells or lysates may run through a third protein. Some binding calls cover weakened binding; strength is not graded here.

Chains of the proteins cited; added tags and fusions are not shown.
UniProt P21281: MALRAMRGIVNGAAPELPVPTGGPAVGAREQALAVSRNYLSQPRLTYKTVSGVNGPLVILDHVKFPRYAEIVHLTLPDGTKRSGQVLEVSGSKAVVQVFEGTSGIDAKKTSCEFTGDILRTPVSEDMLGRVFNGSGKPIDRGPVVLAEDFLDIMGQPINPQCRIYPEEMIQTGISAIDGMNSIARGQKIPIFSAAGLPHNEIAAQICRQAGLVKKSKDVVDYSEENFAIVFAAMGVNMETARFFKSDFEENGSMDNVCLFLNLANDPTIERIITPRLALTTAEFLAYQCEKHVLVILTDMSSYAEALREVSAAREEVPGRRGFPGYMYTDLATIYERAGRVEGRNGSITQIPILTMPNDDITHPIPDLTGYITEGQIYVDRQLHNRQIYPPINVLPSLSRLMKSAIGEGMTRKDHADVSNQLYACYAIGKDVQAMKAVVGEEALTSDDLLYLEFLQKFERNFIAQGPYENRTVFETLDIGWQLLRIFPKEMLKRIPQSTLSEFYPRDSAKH

The assay concerns the target T1, aldolase A (ALDOA) (human (endogenous in KGN)) (UniProt P04075).
T1 sequence: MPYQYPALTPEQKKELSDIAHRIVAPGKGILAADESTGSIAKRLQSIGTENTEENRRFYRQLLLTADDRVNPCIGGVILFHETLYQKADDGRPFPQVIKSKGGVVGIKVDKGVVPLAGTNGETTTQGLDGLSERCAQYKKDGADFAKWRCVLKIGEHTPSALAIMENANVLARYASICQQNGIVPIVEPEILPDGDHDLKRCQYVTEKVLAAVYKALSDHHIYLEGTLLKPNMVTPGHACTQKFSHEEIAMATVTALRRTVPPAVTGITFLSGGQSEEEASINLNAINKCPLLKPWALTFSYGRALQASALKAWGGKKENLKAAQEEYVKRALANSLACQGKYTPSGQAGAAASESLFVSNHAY
The assay is described as follows: co-IP; KGN cells (ZNF674-AS1 silenced and negative control) lysed in Pierce IP lysis buffer; lysates incubated overnight at 4 °C with anti-ALDOA antibodies, Protein A/G magnetic beads 1 h at room temperature; western blot for ATP6V1B2.

In the case of “ATP6V1B2, a non-catalytic subunit of v-ATPase (from UniProt P21281 1-511)”, the binding result is given as “binds”.

The values are drawn from PMC8124069.
